From paper PMC8546589
Where two headings read alike, the source gives them in different places. No constants are given. Whether binding was seen depends on the method and setting. In cells and extracts the contact can be indirect. These calls come from enrichment with a bait or labelling near it, and not all partners need be listed. Sequences can lack the tags named with a protein.

The chains behind the UniProt entries cited, without tags or fusion partners. Where a name states a change or a piece, a line headed by the entry shows the natural chain unless it says otherwise.
UniProt C4LTS8: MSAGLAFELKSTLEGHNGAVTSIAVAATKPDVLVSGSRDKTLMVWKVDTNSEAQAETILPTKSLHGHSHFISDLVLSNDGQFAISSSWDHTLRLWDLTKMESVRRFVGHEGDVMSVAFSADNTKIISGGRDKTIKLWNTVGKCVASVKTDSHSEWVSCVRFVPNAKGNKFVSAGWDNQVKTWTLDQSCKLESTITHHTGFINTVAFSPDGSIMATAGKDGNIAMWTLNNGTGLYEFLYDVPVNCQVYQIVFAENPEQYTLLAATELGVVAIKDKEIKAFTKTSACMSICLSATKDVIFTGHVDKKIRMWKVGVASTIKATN

Columns and labels:
Assay in all cases: affinity purification with mass spectrometry; anti-c-Myc agarose IP from whole-cell lysate of E. histolytica lines overexpressing the Myc-tagged bait (EhAgo2-2 WT, its two mutants, EhRdRP1, EhRdRP2), 2 h at 4°C, six low-stringency washes; LC-MS/MS in triplicate; nonribosomal hits in at least 2 of 3 data sets, exclusive or ≥3-fold enriched against the Luc control
[1] = target: T1, Myc-EhRdRP1 (E. histolytica) (UniProt C4M6W7)
T1 sequence: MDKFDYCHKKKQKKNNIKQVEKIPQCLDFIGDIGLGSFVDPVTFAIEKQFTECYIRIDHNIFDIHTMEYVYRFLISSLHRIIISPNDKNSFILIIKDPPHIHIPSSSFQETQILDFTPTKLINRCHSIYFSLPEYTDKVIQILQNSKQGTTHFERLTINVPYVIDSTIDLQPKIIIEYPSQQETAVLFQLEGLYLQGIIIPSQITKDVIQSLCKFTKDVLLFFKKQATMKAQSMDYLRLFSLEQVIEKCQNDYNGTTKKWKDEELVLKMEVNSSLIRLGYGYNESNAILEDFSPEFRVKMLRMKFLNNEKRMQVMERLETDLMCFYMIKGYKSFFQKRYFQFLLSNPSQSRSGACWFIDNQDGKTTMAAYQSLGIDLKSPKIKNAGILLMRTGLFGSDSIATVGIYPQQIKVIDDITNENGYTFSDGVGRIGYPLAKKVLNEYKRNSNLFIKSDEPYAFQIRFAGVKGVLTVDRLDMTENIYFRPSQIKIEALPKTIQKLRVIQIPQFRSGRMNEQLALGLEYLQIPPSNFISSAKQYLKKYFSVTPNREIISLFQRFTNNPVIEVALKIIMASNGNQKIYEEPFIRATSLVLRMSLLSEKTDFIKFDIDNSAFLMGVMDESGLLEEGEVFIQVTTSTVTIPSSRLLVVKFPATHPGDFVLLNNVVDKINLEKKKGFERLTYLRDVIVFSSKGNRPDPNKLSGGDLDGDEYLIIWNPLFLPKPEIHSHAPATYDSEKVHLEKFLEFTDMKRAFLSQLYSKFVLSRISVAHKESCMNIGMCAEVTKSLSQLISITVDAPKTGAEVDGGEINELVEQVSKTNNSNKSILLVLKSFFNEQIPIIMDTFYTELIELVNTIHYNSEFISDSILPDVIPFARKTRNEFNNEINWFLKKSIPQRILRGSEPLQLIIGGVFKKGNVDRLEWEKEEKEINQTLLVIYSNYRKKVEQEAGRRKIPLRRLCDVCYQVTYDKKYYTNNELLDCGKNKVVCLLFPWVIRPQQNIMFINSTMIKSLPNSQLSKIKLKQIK

[2] = target: T2, Myc-EhRdRP2 (E. histolytica) (UniProt C4M631)
T2 sequence: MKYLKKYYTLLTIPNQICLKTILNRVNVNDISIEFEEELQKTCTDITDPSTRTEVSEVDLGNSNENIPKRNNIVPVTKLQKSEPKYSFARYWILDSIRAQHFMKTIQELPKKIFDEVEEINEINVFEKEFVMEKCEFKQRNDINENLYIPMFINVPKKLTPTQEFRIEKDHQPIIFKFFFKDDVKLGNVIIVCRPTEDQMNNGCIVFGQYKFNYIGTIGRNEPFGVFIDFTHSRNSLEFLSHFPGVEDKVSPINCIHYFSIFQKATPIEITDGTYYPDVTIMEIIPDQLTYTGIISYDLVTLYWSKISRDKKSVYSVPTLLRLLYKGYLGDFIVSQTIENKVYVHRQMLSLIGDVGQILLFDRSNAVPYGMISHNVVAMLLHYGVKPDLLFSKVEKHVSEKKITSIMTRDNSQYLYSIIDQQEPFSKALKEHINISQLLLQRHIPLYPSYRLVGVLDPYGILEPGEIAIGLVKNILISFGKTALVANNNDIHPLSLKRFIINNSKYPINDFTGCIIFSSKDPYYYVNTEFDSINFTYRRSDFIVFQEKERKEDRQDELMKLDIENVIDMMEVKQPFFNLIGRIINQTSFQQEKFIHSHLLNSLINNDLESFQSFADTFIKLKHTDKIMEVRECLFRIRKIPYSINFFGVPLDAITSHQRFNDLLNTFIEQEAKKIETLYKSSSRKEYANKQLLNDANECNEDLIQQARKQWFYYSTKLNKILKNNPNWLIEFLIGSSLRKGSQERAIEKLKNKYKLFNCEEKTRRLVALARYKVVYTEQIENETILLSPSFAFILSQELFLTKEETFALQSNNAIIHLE

[3] = target: T1, Myc-EhRdRP1 (E. histolytica); remark: listed apart in the source

guanine nucleotide-binding protein subunit beta 2-like 1 (endogenous) (from UniProt C4LTS8)
binding [1]: binds

B1: enhancer binding protein-1 (endogenous) (protein, UniProt C4M5C4 1-306)
chain: MTTLYVSHLDYSLKVEDVQNAFKTYNPKEVKIISTPIGYSRGFAFIEFATPQEAEKALEMDRHTIGKMEIKVQKALPKEETTTERKMNRRGFKGKRNTRKRHLVKRTNEVTDNMLFIKNLPFAITEEKLKEMFSKFGVVEITLIKTHRKKGNVTKNNGIAFITVKTAEEQKKAIAEMNNFEVEGRKITVAAAYKKVENKQTTKKTNEPKSLSETNVFVKNLPFTLTDEGFKKLFEKYDVVEATIVKRHNKKLNVDRSKGYGFVTFKTAEQQKKAIAEMDNFEVEGRKITVTSAYQRAEKKEETTSN
binding [2]: binds
binding [3]: binds
